## Results of single-concentration screens

Protein sequences, listed by entry. Tags and fused reporters are not part of them.
UniProt P9WNZ1, whole entry: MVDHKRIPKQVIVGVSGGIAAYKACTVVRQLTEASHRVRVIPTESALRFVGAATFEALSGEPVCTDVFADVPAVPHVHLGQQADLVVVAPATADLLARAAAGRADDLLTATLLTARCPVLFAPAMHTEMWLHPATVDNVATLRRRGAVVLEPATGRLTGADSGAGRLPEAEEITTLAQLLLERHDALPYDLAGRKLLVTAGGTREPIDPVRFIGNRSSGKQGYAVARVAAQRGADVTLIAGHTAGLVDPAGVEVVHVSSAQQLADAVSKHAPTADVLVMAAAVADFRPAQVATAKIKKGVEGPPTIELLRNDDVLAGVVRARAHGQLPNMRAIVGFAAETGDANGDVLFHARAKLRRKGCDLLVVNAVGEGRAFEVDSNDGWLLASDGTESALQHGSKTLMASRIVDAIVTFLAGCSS
UniProt P9WFT3, whole entry: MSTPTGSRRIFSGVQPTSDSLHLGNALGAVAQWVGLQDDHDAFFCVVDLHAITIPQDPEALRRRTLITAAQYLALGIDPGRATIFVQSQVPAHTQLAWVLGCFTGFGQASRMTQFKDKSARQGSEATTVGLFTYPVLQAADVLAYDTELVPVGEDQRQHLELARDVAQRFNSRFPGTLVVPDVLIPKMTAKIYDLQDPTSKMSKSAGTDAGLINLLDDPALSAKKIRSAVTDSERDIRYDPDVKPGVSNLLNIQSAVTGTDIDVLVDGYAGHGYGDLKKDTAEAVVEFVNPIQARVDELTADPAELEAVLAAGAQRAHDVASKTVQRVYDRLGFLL

From ChEMBL document CHEMBL3988442, “University of Dundee, Small-Polar-MMV Screening Library” (2021).

A: 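Coenzyme A biosynthesis protein CoaBC, Mycobacterium tuberculosis (UniProt P9WNZ1). Enzyme assay of CoaBC with a phosphate dye (Biomol Green) read at 650 nm. Tested at 30 µM. Direction is inferred from only a few compounds that gave an IC50; most scored high, so higher reads as stronger inhibition. Most strong results did not repeat in a second test. Size under these conditions: about 67,000 compounds, about 40 of them at 50% or above in at least one test.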
B: 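Tryptophan-tRNA ligase, Mycobacterium tuberculosis (UniProt P9WFT3). Enzyme assay of tryptophanyl-tRNA synthetase; the read-out is not stated. Tested at 10 µM. Higher most likely means stronger inhibition; the record gives no direction and few retests gave an IC50. Of about 65,000 compounds tested this way, about 64 (0.098%) reached 50% or more in at least one test.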

Values are the deposited “Percent Effect”, in %.
The controls that fix the scale are not given in the record; negative values are as filed.
Compounds were drawn at random from those tested, without regard to their results.
A dash means the value is not listed here; it may have been measured.

| # | SMILES | A | B |
|---|---|---|---|
| 1 | `Cc1noc(CNc2ccc(C(=O)N3CCCC(C)C3)cc2C)n1` (stereo not shown) | 4.258 | 1.947 |
| 2 | `CC(C(=O)O)N1CC2(CCC1=O)CCN(CCc1ccccc1)CC2` (stereo not shown) | -0.2558 | -2.52 |
| 3 | `Cc1cc(F)ccc1S(=O)(=O)N(C)CC(N)=O` | 1.576 | -1.751 |
| 4 | `CC(Cn1ccnc1)NCc1cc(Br)c2c(c1)OCO2` (stereo not shown) | -10.12 | 6.078 |
| 5 | `COCCn1cc2c(n1)C(CNCc1ccco1)OCC2` (stereo not shown) | -3.106 | 13.88 |
| 6 | `COCC(c1cccc(C(F)(F)F)c1)N(C)C(=O)c1cc(C)no1` (stereo not shown) | -4.787 | 1.415 |
| 7 | `CC(C)C(Sc1nnc(C2CC2)n1C1CC1)C(=O)NCc1cccnc1` (stereo not shown) | 2.892 | 3.917 |
| 8 | `CN(CCc1nccs1)C(=O)CC1(O)CCCCC1` | -2.103 | 0.5913 |
| 9 | `C[C@@H]1CN(C(=O)c2ccncc2)CC[C@@]1(O)C1CCOCC1` | 3.739 | 1.957 |
| 10 | `CC(c1cncs1)N(C)Cc1ccc(CCC(C)(C)O)cc1` (stereo not shown) | 2.479 | -5.747 |
| 11 | `Cc1n[nH]c2c1C(c1cc(F)cc(F)c1)SCC(=O)N2` (stereo not shown) | -2.058 | -2.333 |
| 12 | `CN1CCC2(COCc3cnc(-c4ccccc4)nc32)C1` (stereo not shown) | -8.32 | -1.205 |
| 13 | `Cc1cnc2c(S(=O)(=O)NCC3CCOC3)cccc2c1` (stereo not shown) | 2.216 | 0.4125 |
| 14 | `COCCNC(=O)C1CCCN1S(=O)(=O)c1sc(=O)[nH]c1C` (stereo not shown) | -4.214 | -2.437 |
| 15 | `CNc1ncccc1C(=O)N1CCN(Cc2ccc(C)cc2)C(=O)C1C` (stereo not shown) | 3.904 | 5.595 |
| 16 | `Cc1ccc(C(C)NC(=O)N2CCN(S(C)(=O)=O)CC2)o1` (stereo not shown) | 3.871 | 0.6399 |
| 17 | `CCOC(=O)N1CCN(c2nc(NCCO)c3ccccc3n2)CC1` | -7.923 | -0.4244 |
| 18 | `CCc1nnc(CN2CCc3[nH]c(-c4ccc(OC)cc4)nc3C2)o1` | 1.961 | -9.956 |
| 19 | `CC(C)(C)NC(=O)CN1CCCN(Cc2ccc(C#N)cc2)CC1` | -27.55 | -3.561 |
| 20 | `O=C(Cn1nnn(-c2cccs2)c1=O)NCC1CCOC1` (stereo not shown) | -1.585 | -0.2649 |
| 21 | `CC(C)c1nc(C2CCCN(C(=O)CCCn3ccnc3)C2)no1` (stereo not shown) | 5.921 | -3.078 |
| 22 | `CNC(=O)C1Cc2ccccc2CN1C(=O)CC(C)C` (stereo not shown) | 4.175 | -2.234 |
| 23 | `COCC1c2nnn(CC3CC3)c2CCN1Cc1ccncc1` (stereo not shown) | 3.782 | 0.3487 |
| 24 | `CCNC(=O)[C@@H]1C[C@H](N)CN1C(=O)c1cccc(CCC(C)(C)O)c1` | 2.357 | 1.935 |
| 25 | `CCc1nnc2ccc(N3CCN(S(=O)(=O)c4ccc(Cl)s4)CC3)nn12` | 6.743 | -2.376 |
| 26 | `COCc1noc(-c2nn(-c3ccc(F)cc3)c3c2CCC3)n1` | -0.1209 | -1.469 |
| 27 | `Cc1nc(C2(NCC(=O)NC(=O)NCc3cccs3)CCCCC2)no1` | 7.692 | 0.1059 |
| 28 | `Cc1nccc(NCc2cncc3c2CCN(CC2CC2)C3)n1` | 5.432 | - |
| 29 | `COc1cc(C)ccc1OCCN1CC[C@@]2(O)CCNC[C@H]2C1` | -48.58 | 9.661 |
| 30 | `COCCN(Cc1ccc(OC)nc1)Cc1cccs1` | -5.484 | 2.285 |
| 31 | `N#CC1(C(=O)NCC2CCC3(CCNCC3)O2)CC1` (stereo not shown) | -2.036 | -3.153 |
| 32 | `CNc1cncc(C2CCCN2C(=O)c2ccc3oc(=O)n(C)c3c2)n1` (stereo not shown) | -10.83 | 3.094 |
| 33 | `Cc1c(NCCO)cccc1OC1CCCC1` | -26.37 | -4.397 |
| 34 | `Cc1c(Br)cccc1C(=O)NCCC1CCCNC1` (stereo not shown) | -11.39 | 5.997 |
| 35 | `CCS(=O)(=O)N(C)C1CCN(c2cccc(F)c2C(C)=O)CC1` | 6.667 | -3.367 |
| 36 | `CC(C)Cn1cc(NC(=O)NC(C)(C)c2nccs2)cn1` | 3.968 | -3.939 |
| 37 | `CN(C)c1nc2sc(C(=O)N3CCN(C(=O)OC(C)(C)C)CC3)cc2s1` | 5.157 | -3.129 |
| 38 | `CCN(Cc1ccoc1)C(=O)c1ccncc1O` | 7.171 | -2.579 |
| 39 | `CC(NC(=O)C(C)(C)C)c1cc(O)nc(-c2cccnc2)n1` (stereo not shown) | -0.2421 | 0.06528 |
| 40 | `Cc1cccc(CN(Cc2cccnc2)C2CC(C)(C)NC(C)(C)C2)n1` | 0 | - |
| 41 | `Cc1cccc(CN2CC[C@@H]3[C@@H]2CCN3C(=O)c2cc(C)oc2C)n1` | -3.008 | -2.213 |
| 42 | `COCC1CN(S(=O)(=O)c2cccc(F)c2)Cc2nccn2C1` (stereo not shown) | -0.6188 | - |
| 43 | `CCN(Cc1ccoc1)C(=O)Nc1ccccc1CN1CCOCC1` | -0.7299 | 1.235 |
| 44 | `COCc1nc(N(C)C)ncc1C(=O)OC` | -1.848 | 0 |
| 45 | `CCc1c(C)nc(N)nc1NCCSCc1[nH]cnc1C` | 1.44 | -4.527 |
| 46 | `CS(=O)(=O)CC1(CNc2cc(C#N)c3cc(Cl)ccc3n2)CC1` | 6.497 | 0.5112 |
| 47 | `CCc1nnsc1C(=O)NCc1nnc2n1CCCCC2` | 4.303 | -1.444 |
| 48 | `O=S1(=O)NC2(CCCN(Cc3ccc(F)cc3)C2)COc2ccccc21` (stereo not shown) | 0.7895 | -3.889 |
| 49 | `Cc1nc(O)cc(C2CCN(C(=O)c3ccsc3)CC2)n1` | 0.8739 | 2.346 |
| 50 | `CC(C)CCNC(=O)C1CCN(c2ccc3nnc(C(C)C)n3n2)CC1` | 5.051 | 0.9104 |
| 51 | `O=C(CN1CCCS1(=O)=O)NCCOc1ccc2c(c1)CCC2` | -3.109 | 1.559 |
| 52 | `CCCn1cc(NC(=O)c2cccc(CN3CC=CC3)c2)nn1` | 8.231 | 2.545 |
| 53 | `O=C(c1ccco1)N1CC[C@H]2C[C@@H](c3nccs3)O[C@@H]2C1` | 0.5013 | 3.32 |
| 54 | `COCc1n[nH]/c(=N/C(=O)COc2cnc(C)cc2O)s1` | 7.422 | -2.013 |
| 55 | `CC(C)(C)C(=O)N1C[C@H](c2ccsc2)[C@H]2CN(C3CCCC3)CC[C@H]21` | 2.098 | -5.855 |
| 56 | `CC[C@H]1CN2CC[C@H]1C[C@@H]2CNC(=O)Nc1cc(OC)cc(OC)c1` | -17.38 | -3.238 |
| 57 | `COCCN1CCN(CC(O)c2ccc(C(F)(F)F)cc2)CC1` (stereo not shown) | 3.676 | 3.763 |
| 58 | `CCN1CCCC1CN(CCN(C)C)S(=O)(=O)c1ccccc1C#N` (stereo not shown) | 2.934 | -3.211 |
| 59 | `Cc1ccc(C(C)NC(=O)N2CCCN(CC(F)F)CC2)s1` (stereo not shown) | -8.549 | -2.949 |
| 60 | `COc1cccc(CC(C)NC(=O)NCCc2cccnc2)c1` (stereo not shown) | 2.644 | -1.941 |
| 61 | `CCN(Cc1nc(Cc2ccccc2)no1)C1CC1` | 0.6274 | 0.306 |
| 62 | `CC(C)NC(=O)N1CCC2(CC1)NC(=O)[C@H]1CN(C(=O)N(C)C)C[C@H]12` | 3.308 | -3.476 |
| 63 | `COc1ccccc1OCCN1CCCC(c2cc(C(N)=O)[nH]n2)C1` (stereo not shown) | 5.346 | -1.267 |
| 64 | `O=C(NCCc1ccccn1)[C@@]12CCO[C@@H]1CCN(C1CCC1)C2` | 1.158 | 5.523 |
| 65 | `CCOc1cccc(C(=O)NCCC(=O)Nc2ccncc2)c1` | 3.104 | -1.589 |
| 66 | `CSCC(=O)Nc1ncc(I)cc1C` | -2.39 | 8.691 |
| 67 | `CC(=O)N1CCC(NC(=O)c2ccc3c(c2O)OC(C)(C)C3)CC1` | 7.506 | -1.188 |
| 68 | `COCc1nc(C2CCN(Cc3nccn3C)CC2)no1` | 0 | -4 |
| 69 | `O=C(NCc1ccc2c(c1)CCCO2)C1CNCCO1` (stereo not shown) | -0.3797 | 0.6798 |
| 70 | `CCN(C(=O)c1cnc(-c2ccc3c(c2)OCO3)s1)C1CC1` | 0.3444 | -1.577 |
| 71 | `N[C@@H]1c2ccccc2C2(CCN(C(=O)c3ccc(CO)o3)CC2)[C@H]1O` | 5.684 | -3.957 |
| 72 | `COCC(=O)N1CCC2(CC1)NC(=O)c1ccccc12` | - | 3.776 |
| 73 | `CC(=O)c1cc(CN2C[C@@H](N(C)C)[C@H](C(C)C)C2)cs1` | -6.198 | 2.918 |

For reference, 9 entries once more:

COCCNC(=O)C1CCCN1S(=O)(=O)c1sc(=O)[nH]c1C (stereo not shown) gave A: -4.214%; B: -2.437%.
CCN(Cc1nc(Cc2ccccc2)no1)C1CC1 gave A: 0.6274%; B: 0.306%.
CCN(C(=O)c1cnc(-c2ccc3c(c2)OCO3)s1)C1CC1 gave A: 0.3444%; B: -1.577%.
CCCn1cc(NC(=O)c2cccc(CN3CC=CC3)c2)nn1 gave A: 8.231%; B: 2.545%.
CC(C)(C)NC(=O)CN1CCCN(Cc2ccc(C#N)cc2)CC1 gave A: -27.55%; B: -3.561%.
CCN1CCCC1CN(CCN(C)C)S(=O)(=O)c1ccccc1C#N (stereo not shown) gave A: 2.934%; B: -3.211%.
CS(=O)(=O)CC1(CNc2cc(C#N)c3cc(Cl)ccc3n2)CC1 gave A: 6.497%; B: 0.5112%.
N[C@@H]1c2ccccc2C2(CCN(C(=O)c3ccc(CO)o3)CC2)[C@H]1O gave A: 5.684%; B: -3.957%.
CC(Cn1ccnc1)NCc1cc(Br)c2c(c1)OCO2 (stereo not shown) gave A: -10.12%; B: 6.078%.